# Several values for one entry are separate records, joined by “and”; a condition that tells them apart may be missing. Equal values may be shown once. At least one structure is not confirmed: it was looked up by name or label, or the drawing left a doubt.
# Protein sequences, listed by entry. Tags and fused reporters are not part of them.
# UniProt A0ACD7F8P2, entry or part of it H281L/S236A/T380V: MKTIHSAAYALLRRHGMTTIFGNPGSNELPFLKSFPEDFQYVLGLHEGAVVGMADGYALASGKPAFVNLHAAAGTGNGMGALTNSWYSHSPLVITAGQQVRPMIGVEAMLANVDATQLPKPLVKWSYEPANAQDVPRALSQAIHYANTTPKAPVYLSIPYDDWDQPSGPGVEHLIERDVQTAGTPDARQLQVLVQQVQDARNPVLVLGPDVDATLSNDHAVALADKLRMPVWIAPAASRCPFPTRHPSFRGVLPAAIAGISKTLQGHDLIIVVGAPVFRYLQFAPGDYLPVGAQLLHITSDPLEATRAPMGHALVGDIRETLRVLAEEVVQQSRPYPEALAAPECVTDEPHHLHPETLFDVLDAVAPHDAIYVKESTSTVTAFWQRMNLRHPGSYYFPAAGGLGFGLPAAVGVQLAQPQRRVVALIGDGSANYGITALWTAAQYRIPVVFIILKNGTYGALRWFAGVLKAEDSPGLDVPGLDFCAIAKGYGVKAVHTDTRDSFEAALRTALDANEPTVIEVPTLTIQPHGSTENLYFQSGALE
# Legend:
# Assay in all cases: Steady-state kinetics of 2-ketoacid decarboxylase (ADH/NADH coupled)
# Type in all cases: biochemical
# [1] = molecular target: GEO179, 2-ketoacid decarboxylase, SEQ ID NO:14 (Klebsiella variicola, UniProt A0ACD7F8P2, H281L/S236A/T380V); details: pH 7.5, 21° C.
# From the text: FIG. 20: Depicts results of a structural alignment of GEOs and KIVD (GEO175=SEQ ID NO:2, GEO243=SEQ ID NO:5, GEO 250=SEQ ID NO:6, GEO 242=SEQ ID NO:7, GEO 245=SEQ ID NO:8, GEO 251=SEQ ID NO:9, GEO 247=SEQ ID NO:10, GEO 244=SEQ ID NO:11, GEO 246=SEQ ID NO:12, GEO 248=SEQ ID NO:13, GEO 179=SEQ ID NO:14, GEO 240=SEQ ID NO:15, GEO 195=SEQ ID NO:16, GEO 241=SEQ ID NO:17, GEO 249=SEQ ID NO:4, KIVD_VLV=SEQ ID NO:3). Active site residues are denoted with a black box under the residue letter.
# (§1) For the native KIVD and KIVD_VLV mutant, 2 ml overnight cultures of XL1B cells were transformed with pQE9 containing N-terminal his-tagged KIVD enzymes and grown in Terrific Broth (BP biomedical, Cat#3046-042) with 50 μg/mL of carbenicillin. […] Protein concentrations were determined using a Synergy H1 spectrophotometer (Biotek) by measuring absorbance at 280 nm using their calculated extinction coefficients with ExPASy ProtParam Tool.^33 All other buffers and salts were purchased from Fisher Scientific unless otherwise specified.
# The kcat and KM values of selective KIVD mutants were measured for the substrates: C3, C5, isoC5, and C8. […] Activity was measured at 0.005 mM to 10 mM substrates. […] Absorbance readings were taken every 1-minute at OD340 at 21° C. for 60 minutes using the Synergy H1. […]
# [2] = system: Streptomyces sp. C GEO175 variant L376T_T240S, SEQ ID NO:19; details: for decrease in catalytic efficiency relative to GEO 175: relative to GEO 175, same conditions
# Description: FIG. 6: Depicts results of kinetic characterization of GEO 175 and GEO 175 L376T_T240S. Kinetic constants were measured as described herein. The substrate 2-ketooctanoate carbon chain numbering referred to in the text is numbered in white. According to the molecular model of GEO 175, the double mutation L376T_T240S is predicted to recede the pocket by 1.4 Å and remove interactions between the binding pocket and carbon 8 of the ketoacid alkyl chain.
# From these observations it was hypothesized that the specificity of GEO 175 could be attributed to a combination of hydrophobic interactions with the sixth through eighth carbons of the alkyl chain, while lacking interactions with the third through fifth carbons. (FIG. 6) Therefore, an engineered a mutant of GEO 175 containing two amino acid changes (L376T, T240S) (SEQ ID NO:19) predicted to remove the direct molecular interactions with seventh and eighth carbons of the ketoacid alkyl chain, while maintaining overall protein stability was generated. […] The ability to rationally modulate activity based on structure supports the accuracy of the GEO 175 molecular model.
# For the native KIVD and KIVD_VLV mutant, 2 ml overnight cultures of XL1B cells were transformed with pQE9 containing N-terminal his-tagged KIVD enzymes and grown in Terrific Broth (BP biomedical, Cat#3046-042) with 50 μg/mL of carbenicillin. (Fisher scientific, Cat# BP2648-5) For the GEOs, 2 ml overnight cultures of BLR cells were transformed with pet29b+ plasmid containing N-terminal his-tagged GEOs, and grown in Terrific Broth with 50 μg/mL of kanamycin. (Fisher scientific, Cat# BP906-5) These cultures were diluted 1:1000 in 500 mL of Terrific Broth with 1 mM MgSO4, 1% glucose, and 50ug/mL of corresponding antibiotics, then grown at 37° C. for 24 hours. Cultures were pelleted down at 4700 rpm for 10 mins and resuspended in auto-induction media (LB broth, 1 mM MgSO4, 0.1 mM TPP, 1×NPS, and 1×5052) for induction at 18° C. for 34 hours. At the end of induction, cells were centrifuged (4700 rpm, 4° C., 20 minutes), supernatant was removed, and cells were resuspended in 40 mL lysis buffer (100 mM Hepes pH 7.5, 100 mM NaCl, 10% glycerol, 0.1 mM TPP, 1 mM MgSO4, 10 mM Imidazole, 1 mM TCEP) and 1 mM PMSF) and sonicated for 2 minutes. Lysed cells were centrifuged at 4700 rpm at 4° C. for 60 mins to remove cell debris. Supernatant was loaded on gravity flow column with 700 μl of cobalt slurry (Fisher scientific, CAT# PI-90091) washed with 10 ml of wash buffer (100 mM Hepes pH 7.5, 100 mM NaCl, 10% glycerol, 0.1 mM TPP, 1 mM MgSO4, 10 mM Imidazole, and 1 mM TCEP). Cobalt bead bed was washed with 15 ml of wash buffer 5 times and proteins were eluted with 1000 μl of elution buffer (100 mM Hepes pH 7.5, 100 mM NaCl, 10% glycerol, 0.1 mM TPP, 1 mM MgSO4, 200 mM Imidazole, and 1 mM TCEP). Protein samples were immediately buffer exchanged with spin concentrators (Satorius, CAT# VS0112) into storage buffer (100 mM Hepes pH 7.5, 100 mM NaCl, 10% glycerol, 0.1 mM TPP, 1 mM MgSO4, and 1 mM TCEP) and stored at 4° C. until kinetics characterization. Protein concentrations were determined using a Synergy H1 spectrophotometer (Biotek) by measuring absorbance at 280 nm using their calculated extinction coefficients with ExPASy ProtParam Tool.^33 All other buffers and salts were purchased from Fisher Scientific unless otherwise specified.
# The kcat and KM values of selective KIVD mutants were measured for the substrates: C3, C5, isoC5, and C8. All substrates were dissolved in MilliQ H2O and pH was adjusted to 7.5 as necessary. Activity was measured at 0.005 mM to 10 mM substrates. The assay was performed in a 96-well half-area plate. Each reaction contains a final concentration of 0.5 mM NADH, 1 mM DTT, 0.1 mM TPP, 1 mM MgSO4, reaction buffer (100 mM Hepes, 100 mM NaCl, 10% glycerol, pH 7.5) and ADH (Sigma Aldrich, A7011, 10 U/ml for C3, C5 and C8 reactions, 500 U/ml for isoC5 reactions). […]
# [3] = system: GEO175, native 2-ketoacid decarboxylase from Streptomyces sp. C, SEQ ID NO:2
# [4] = molecular target: Native KIVD (ketoisovalerate decarboxylase), wild type, SEQ ID NO:1 (Lactococcus lactis, UniProt A0A0B8QZ66)
# Description: as §1, with “carbenicillin. (Fisher scientific, Cat# BP2648-5) For the GEOs, 2 ml overnight cultures of BLR cells were transformed with pet29b+ plasmid containing N-terminal his-tagged GEOs, and grown in Terrific Broth with 50 μg/mL of kanamycin. (Fisher scientific, Cat# BP906-5) These cultures were diluted 1:1000 in 500 mL of Terrific Broth with 1 mM MgSO4, 1% glucose, and 50ug/mL of corresponding antibiotics, then grown at 37° C. for 24 hours.” for “carbenicillin.”
# The kcat and KM values of selective KIVD mutants were measured for the substrates: C3, C5, isoC5, and C8. […] Activity was measured at 0.005 mM to 10 mM substrates. […] Absorbance readings were taken every 1-minute at OD340 at 21° C. for 60 minutes using the Synergy H1. Kinetic parameters (kcat and KM) were determined by fitting initial velocity versus substrate concentration data to the Michaelis-Menten equation.
# [5] = molecular target: T1, KIVD variant G402V/M538L/F542V (KIVD_VLV), SEQ ID NO:3 (Lactococcus lactis, UniProt A0A0B8QZ66, F542V/G402V/M538L); details: C8 versus C5, relative to native KIVD
# T1 sequence (A0A0B8QZ66 1-548 G402V/M538L/F542V): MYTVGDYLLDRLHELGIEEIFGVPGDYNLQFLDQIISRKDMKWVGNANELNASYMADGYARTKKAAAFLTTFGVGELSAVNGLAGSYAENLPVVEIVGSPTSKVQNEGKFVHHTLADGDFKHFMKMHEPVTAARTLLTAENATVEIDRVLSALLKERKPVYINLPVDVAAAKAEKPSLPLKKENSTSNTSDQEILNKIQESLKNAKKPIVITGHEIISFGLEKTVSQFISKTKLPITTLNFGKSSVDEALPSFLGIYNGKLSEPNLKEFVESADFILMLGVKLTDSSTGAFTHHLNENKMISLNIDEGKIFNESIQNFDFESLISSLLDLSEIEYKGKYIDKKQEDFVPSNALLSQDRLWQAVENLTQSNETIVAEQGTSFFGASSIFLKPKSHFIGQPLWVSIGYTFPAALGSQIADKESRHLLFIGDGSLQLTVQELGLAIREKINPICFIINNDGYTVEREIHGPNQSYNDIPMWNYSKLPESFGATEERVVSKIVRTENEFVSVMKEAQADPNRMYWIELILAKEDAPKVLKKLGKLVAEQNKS
# Description: Since KIVD can already efficiently utilize C8 as a substrate, enzyme specificity is of primary importance. Therefore each mutant was screened against a panel of 2-ketoacid substrates in order to assess the specificity and activity of each mutant. (FIG. 11) This assay was performed using a high-throughput pH-dependent colorimetric assay of enzyme activity in crude cell extracts. Mutations that increased specificity for C8 were then combined to produce combinatorial mutants and screened for specificity with the colorimetric assays. […] The engineered enzyme KIVD_VLV has a 600-fold improvement in specificity between C8 and C5, in terms of catalytic efficiency, relative to the native KIVD.
# as §1
# The kcat and KM values of selective KIVD mutants were measured for the substrates: C3, C5, isoC5, and C8. […] Activity was measured at 0.005 mM to 10 mM substrates. […]
smiles,measurement,setting,value
"CCCC(=O)C(=O)O [C5, 2-ketovalerate]",kcat,[1],0.47 ± 0.03 s⁻¹
same,kcat,"[2]; pH 7.5, 21° C.",0.28 ± 0.04 s⁻¹
same,decrease in catalytic efficiency relative to GEO 175,[2],less than 2 fold
"CCCCCCC(=O)C(=O)O [C8, 2-ketooctanoate]",kcat,[1],0.32 ± 0.01 s⁻¹
same,improvement in specificity (C8 versus C5) relative to the native KIVD,[3],> 100 fold
same,Km,"[2]; pH 7.5, 21° C.",3.1 ± 0.4 mM
same,kcat,"[2]; pH 7.5, 21° C.",3.4 ± 0.2 s⁻¹
same,"effect of the double mutation on catalytic efficiency, in words",[2]; relative to GEO 175,decrease catalytic efficiency
same,decrease in catalytic efficiency relative to GEO 175,[2],15 fold
same,catalytic efficiency on C8 higher than on C3,"[4]; C8 versus C3, same conditions",762 fold
same,catalytic efficiency on C8 higher than on C5,"[4]; C8 versus C5, same conditions",3.4 fold
same,"improvement in specificity between C8 and C5, in terms of catalytic efficiency, relative to the native KIVD",[5],600 fold and > 600 fold

# — patent publication US10829756B2, “Discovery of enzymes from the alpha-keto acid decarboxylase family” (Regents of the University of California, priority 2015, dated 2020)
